For at least one entry, the source does not settle the construct or the ends of the probe. Weaker means in comparison with the reference protein, sequence or condition of that experiment. Tags and fusion partners may be left off the protein sequences shown.
Molecular target: T1, His-GlnR (Mycobacterium smegmatis mc2 155) (UniProt A0R4C4)
T1 sequence (looked up): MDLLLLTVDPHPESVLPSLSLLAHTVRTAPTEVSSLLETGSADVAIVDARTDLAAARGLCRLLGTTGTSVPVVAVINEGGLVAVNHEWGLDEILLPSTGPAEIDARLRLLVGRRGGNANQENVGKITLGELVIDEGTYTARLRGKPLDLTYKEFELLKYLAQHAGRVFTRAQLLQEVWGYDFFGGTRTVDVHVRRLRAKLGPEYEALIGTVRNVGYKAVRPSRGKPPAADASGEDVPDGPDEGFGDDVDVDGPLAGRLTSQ
Assay: EMSA
Conditions: 4 uM GlnR, modest interaction; 10 mM Tris pH 7.5, 100 mM KCl (Fig. 3 legend; not in Methods), 1 mM DTT, 2.5% glycerol, 20 mM MgCl2, 500 ng poly(dI-dC), 0.05% NP-40; 30 nM DNA; 10 min room temperature; recombinant protein; residues 1-261; protein details: N-terminal His (pET28a); label: HEX 5'; probe letters rebuilt from the primers and the genome

CATAGGGCGAGGCTAAGAACCCGATATTGCCGCGATGTCGCGCTGTGTGAAGCCCCCATCACGGTGTGCTCACGTCTTCGGCAACGCACATGTGAGGTCCCCGACCGGTGAGCTCTCCGGACCACAGTCAGGCCACAACCGCC (double strand) [msmeg_0427 promoter]
binding result: binds more weakly

Source: PMC6277429
